No constants are given. Whether binding was seen depends on the method and setting. Binding seen in cells or lysates may run through a third protein. Some entries that bind do so weakly or less than the wild type. Values belong to the substance of their own block, whether it stands above or below them.
Key:
[1] = molecular target: FUS G156E with C-terminal GFP tag (UniProt P35637); experiment: single-molecule pull-down (SiMPull) with GFP photobleaching step counting; diluted NP40 lysate (1:100-1:10,000 in T50: 10 mM Tris-Cl pH 8.0, 50 mM NaCl) of transfected SH-SY5Y cells flowed over a PEG/neutravidin surface with biotinylated anti-GFP antibody; 488 nm TIRF, room temperature; photobleaching steps counted per spot; 30% dimers subtracted for GFP self-dimerisation; cells without or with 0.4 M sorbitol 4 h (also arsenite) before lysis
[2] = molecular target: FUS G156E with N-terminal GFP tag (UniProt P35637); experiment: single-molecule pull-down (SiMPull) with GFP photobleaching step counting, before and after a dissolving agent; complexes captured as in SiMPull, imaged, then incubated ~5 min with 10% 1,6-hexanediol, 500 mM NaCl, 1 mg/mL RNase A, 10-1000 nM Kapβ2 or Kapβ2 with RNase A, washed twice with T50 and imaged again; 8 M GdnHCl and 0.1% SDS as denaturing controls (these increased the monomeric population)
[3] = molecular target: FUS G156E with N-terminal GFP tag (UniProt P35637); experiment: single-molecule pull-down (SiMPull) with GFP photobleaching step counting; diluted NP40 lysate (1:100-1:10,000 in T50: 10 mM Tris-Cl pH 8.0, 50 mM NaCl) of transfected SH-SY5Y cells flowed over a PEG/neutravidin surface with biotinylated anti-GFP antibody; 488 nm TIRF, room temperature; photobleaching steps counted per spot; 30% dimers subtracted for GFP self-dimerisation; cells without or with 0.4 M sorbitol 4 h (also arsenite) before lysis
[4] = molecular target: FUS G187S with N-terminal GFP tag (UniProt P35637); experiment: single-molecule pull-down (SiMPull) with GFP photobleaching step counting, before and after a dissolving agent; complexes captured as in SiMPull, imaged, then incubated ~5 min with 10% 1,6-hexanediol, 500 mM NaCl, 1 mg/mL RNase A, 10-1000 nM Kapβ2 or Kapβ2 with RNase A, washed twice with T50 and imaged again; 8 M GdnHCl and 0.1% SDS as denaturing controls (these increased the monomeric population)
[5] = molecular target: FUS G187S with N-terminal GFP tag (UniProt P35637); experiment: single-molecule pull-down (SiMPull) with GFP photobleaching step counting; diluted NP40 lysate (1:100-1:10,000 in T50: 10 mM Tris-Cl pH 8.0, 50 mM NaCl) of transfected SH-SY5Y cells flowed over a PEG/neutravidin surface with biotinylated anti-GFP antibody; 488 nm TIRF, room temperature; photobleaching steps counted per spot; 30% dimers subtracted for GFP self-dimerisation; cells without or with 0.4 M sorbitol 4 h (also arsenite) before lysis
[6] = molecular target: FUS P525L with N-terminal GFP tag (UniProt P35637); experiment: single-molecule pull-down (SiMPull) with GFP photobleaching step counting, before and after a dissolving agent; complexes captured as in SiMPull, imaged, then incubated ~5 min with 10% 1,6-hexanediol, 500 mM NaCl, 1 mg/mL RNase A, 10-1000 nM Kapβ2 or Kapβ2 with RNase A, washed twice with T50 and imaged again; 8 M GdnHCl and 0.1% SDS as denaturing controls (these increased the monomeric population)
[7] = molecular target: FUS R216C with N-terminal GFP tag (UniProt P35637); experiment: as above
[8] = molecular target: FUS R216C with N-terminal GFP tag (UniProt P35637); experiment: single-molecule pull-down (SiMPull) with GFP photobleaching step counting; diluted NP40 lysate (1:100-1:10,000 in T50: 10 mM Tris-Cl pH 8.0, 50 mM NaCl) of transfected SH-SY5Y cells flowed over a PEG/neutravidin surface with biotinylated anti-GFP antibody; 488 nm TIRF, room temperature; photobleaching steps counted per spot; 30% dimers subtracted for GFP self-dimerisation; cells without or with 0.4 M sorbitol 4 h (also arsenite) before lysis
[9] = molecular target: FUS R244C with C-terminal GFP tag (UniProt P35637); experiment: as above
[10] = molecular target: FUS R244C with N-terminal GFP tag (UniProt P35637); experiment: single-molecule pull-down (SiMPull) with GFP photobleaching step counting, before and after a dissolving agent; complexes captured as in SiMPull, imaged, then incubated ~5 min with 10% 1,6-hexanediol, 500 mM NaCl, 1 mg/mL RNase A, 10-1000 nM Kapβ2 or Kapβ2 with RNase A, washed twice with T50 and imaged again; 8 M GdnHCl and 0.1% SDS as denaturing controls (these increased the monomeric population)
[11] = molecular target: FUS R244C with N-terminal GFP tag (UniProt P35637); experiment: single-molecule pull-down (SiMPull) with GFP photobleaching step counting; diluted NP40 lysate (1:100-1:10,000 in T50: 10 mM Tris-Cl pH 8.0, 50 mM NaCl) of transfected SH-SY5Y cells flowed over a PEG/neutravidin surface with biotinylated anti-GFP antibody; 488 nm TIRF, room temperature; photobleaching steps counted per spot; 30% dimers subtracted for GFP self-dimerisation; cells without or with 0.4 M sorbitol 4 h (also arsenite) before lysis
[12] = molecular target: FUS R495X with N-terminal GFP tag (UniProt P35637); experiment: single-molecule pull-down (SiMPull) with GFP photobleaching step counting, before and after a dissolving agent; complexes captured as in SiMPull, imaged, then incubated ~5 min with 10% 1,6-hexanediol, 500 mM NaCl, 1 mg/mL RNase A, 10-1000 nM Kapβ2 or Kapβ2 with RNase A, washed twice with T50 and imaged again; 8 M GdnHCl and 0.1% SDS as denaturing controls (these increased the monomeric population)

Chains of the proteins cited; added tags and fusions are not shown. Lines headed by an entry give the natural chain unless they say otherwise; changes in a name come on top.
UniProt P35637: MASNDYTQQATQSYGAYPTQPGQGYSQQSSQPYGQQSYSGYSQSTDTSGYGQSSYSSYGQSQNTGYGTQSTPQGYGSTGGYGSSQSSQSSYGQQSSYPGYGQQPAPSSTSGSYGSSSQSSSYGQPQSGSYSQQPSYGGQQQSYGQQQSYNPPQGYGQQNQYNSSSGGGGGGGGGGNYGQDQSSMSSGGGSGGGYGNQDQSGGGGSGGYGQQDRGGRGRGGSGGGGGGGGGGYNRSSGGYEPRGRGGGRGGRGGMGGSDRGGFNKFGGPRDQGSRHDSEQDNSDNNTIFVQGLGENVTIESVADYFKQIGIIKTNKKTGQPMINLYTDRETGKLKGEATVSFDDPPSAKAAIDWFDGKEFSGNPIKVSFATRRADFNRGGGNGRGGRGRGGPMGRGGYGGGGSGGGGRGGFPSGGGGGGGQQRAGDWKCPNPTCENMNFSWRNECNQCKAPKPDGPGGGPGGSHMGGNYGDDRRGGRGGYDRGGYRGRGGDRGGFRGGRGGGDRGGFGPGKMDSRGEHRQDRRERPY

Substance: FUS G156E with N-terminal GFP tag (from UniProt P35637 1-526)
binding [2]: binds | binding [3]: binds

Substance: FUS G187S with N-terminal GFP tag (from UniProt P35637 1-526)
binding [4]: binds | binding [5]: binds

Substance: FUS P525L with N-terminal GFP tag (from UniProt P35637 1-526)
binding [6]: binds

Substance: FUS R495X with N-terminal GFP tag (from UniProt P35637 1-494)
binding [12]: binds

Second part, the substance after the results:

binding [1]: binds
Substance: FUS G156E with C-terminal GFP tag (from UniProt P35637 1-526)

binding [7]: binds | binding [8]: binds
Substance: FUS R216C with N-terminal GFP tag (from UniProt P35637 1-526)

binding [9]: binds
Substance: FUS R244C with C-terminal GFP tag (from UniProt P35637 1-526)

binding [10]: binds | binding [11]: binds
Substance: FUS R244C with N-terminal GFP tag (from UniProt P35637 1-526)
